In the supplement of paper PMC4604168 (melanoma cell lines):
The list shows a part of the results. Single values are uncertain, as repeats are few or missing.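 Cells were imaged in 1,536-well plates, and nuclei stained with an antibody against cleaved PARP were counted against all DNA-stained nuclei to give the apoptosis fraction. Screening doses were chosen to leave most cells alive, and resting and induced cleaved-PARP levels differ strongly between cell lines.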

Tested on: A2058
Assay: cleaved PARP positive nuclei fraction relative to DMSO control; melanoma cells; higher = more apoptosis
Conditions: library dose: low library concentration; 72 h

| SMILES | cleaved PARP positive nuclei fraction |
| --- | --- |
| O=c1[nH]nc(Sc2ncc([N+](=O)[O-])s2)n1-c1ccc2c(c1)OCCO2 + COc1cc2c(Oc3ccc4[nH]c(C)cc4c3F)ncnc2cc1OCCCN1CCCC1 [cediranib] (first compound 0.2 µM, partner dose 0.4 µM) | 102% |
| Cc1cc(Nc2cc(N3CCN(C)CC3)nc(Sc3ccc(NC(=O)C4CC4)cc3)n2)n[nH]1 [Tozasertib] + NC(=O)Nc1cc(-c2cccc(F)c2)sc1C(=O)N[C@H]1CCCNC1 [AZD7762] (first compound 0.006 µM, partner dose 0.02 µM) | 38.3% |
| Cc1cn(-c2cc(NC(=O)c3ccc(C)c(Nc4nccc(-c5cccnc5)n4)c3)cc(C(F)(F)F)c2)cn1 [nilotinib] + O=C(Nc1cccc(Cl)c1)Nc1ncc(CCNc2ncnc3ccsc23)s1 [SNS314] (first compound 0.2 µM, partner dose 0.0008 µM) | 61.9% |
| CCCCCCCCCCCCCCCCCCOP(=O)([O-])OC1CC[N+](C)(C)CC1 [Perifosine] + CC(C)(C)c1cnc(CSc2cnc(NC(=O)C3CCNCC3)s2)o1 [SNS-032] (first compound 0.4 µM, partner dose 0.01 µM) | 362% |
| O=C(Nc1cc(C(F)(F)F)cc(C(F)(F)F)c1)c1cc(Cl)ccc1O + NCC(=O)Nc1ccc(-n2nc(C(F)(F)F)cc2-c2ccc3c(ccc4ccccc43)c2)cc1 [OSU03012] (first compound 0.016 µM, partner dose 1 µM) | 118% |
| CCCCCCCCCCCCCCCCCCOP(=O)([O-])OC1CC[N+](C)(C)CC1 [Perifosine] + O=C(O)c1ccc(-c2c[nH]c3ncc(-c4ccccc4)cc23)cc1C1CCCC1 [GSK650394] (first compound 0.4 µM, partner dose 0.16 µM) | 101% |
| O=C(Nc1cc(C(F)(F)F)cc(C(F)(F)F)c1)c1cc(Cl)ccc1O + C[C@@H]1CCN(C(=O)CC#N)C[C@@H]1N(C)c1ncnc2[nH]ccc12 [CP690550] (first compound 0.016 µM, partner dose 1 µM) | 27% |
| CC[C@]1(O)C[C@H]2CN(CCc3c([nH]c4ccccc34)[C@@](C(=O)OC)(c3cc4c(cc3OC)N(C=O)[C@H]3[C@@](O)(C(=O)OC)[C@H](OC(C)=O)[C@]5(CC)C=CCN6CC[C@]43[C@@H]65)C2)C1 [vincristine] + CO[C@@H]1[C@H](N(C)C(=O)c2ccccc2)C[C@H]2O[C@]1(C)n1c3ccccc3c3c4c(c5c6ccccc6n2c5c31)C(=O)NC4 [Midostaurin] (first compound 0.0001 µM, partner dose 0.08 µM) | 297% |
| COc1cc([C@@H]2c3cc4c(cc3[C@@H](O[C@@H]3O[C@@H]5CO[C@@H](C)O[C@H]5[C@H](O)[C@H]3O)[C@H]3COC(=O)[C@H]23)OCO4)cc(OC)c1O [etoposide] + OCCn1cc(-c2cnc3nnn(Cc4ccc5ncccc5c4)c3n2)cn1 [PF04217903] (first compound 0.02 µM, partner dose 1 µM) | 137% |
| CCCCCCCCCCCCCCCCCCOP(=O)([O-])OC1CC[N+](C)(C)CC1 [Perifosine] + C[C@@H]1CCN(C(=O)CC#N)C[C@@H]1N(C)c1ncnc2[nH]ccc12 [CP690550] (first compound 0.4 µM, partner dose 1 µM) | 80.7% |
| O=C(/C=C/c1cccnc1)NCCCCC1CCN(C(=O)c2ccccc2)CC1 + Cc1ccc(NC(=O)c2cccc(N(C)C)c2)cc1NC(=O)c1ccc(O)cc1 [ZM336372] (first compound 0.01 µM, partner dose 2 µM) | 186% |
| Cc1ccc(Nc2nccc(N(C)c3ccc4c(C)n(C)nc4c3)n2)cc1S(N)(=O)=O [Pazopanib] + COc1cc(Nc2ncc(F)c(Nc3ccc4c(n3)NC(=O)C(C)(C)O4)n2)cc(OC)c1OC [Tamatinib] (first compound 0.4 µM, partner dose 0.4 µM) | 53.1% |
| N#CC[C@H](C1CCCC1)n1cc(-c2ncnc3[nH]ccc23)cn1 [ruxolitinib] + COc1cc(Nc2ncc(F)c(Nc3ccc4c(n3)NC(=O)C(C)(C)O4)n2)cc(OC)c1OC [Tamatinib] (first compound 1 µM, partner dose 0.4 µM) | 146% |
| COc1cc([C@@H]2c3cc4c(cc3[C@@H](O[C@@H]3O[C@@H]5CO[C@@H](C)O[C@H]5[C@H](O)[C@H]3O)[C@H]3COC(=O)[C@H]23)OCO4)cc(OC)c1O [etoposide] + CN(NC(=O)CC(=O)NN(C)C(=S)c1ccccc1)C(=S)c1ccccc1 [STA4783] (first compound 0.02 µM, partner dose 0.006 µM) | 177% |
| O=C(Nc1cc(C(F)(F)F)cc(C(F)(F)F)c1)c1cc(Cl)ccc1O + O=C(Nc1cccc(Cl)c1)Nc1ncc(CCNc2ncnc3ccsc23)s1 [SNS314] (first compound 0.016 µM, partner dose 0.0008 µM) | 98.9% |
| Cc1cn(-c2cc(NC(=O)c3ccc(C)c(Nc4nccc(-c5cccnc5)n4)c3)cc(C(F)(F)F)c2)cn1 [nilotinib] + NC(=O)Nc1cc(-c2cccc(F)c2)sc1C(=O)N[C@H]1CCCNC1 [AZD7762] (first compound 0.2 µM, partner dose 0.02 µM) | 112% |
| Cc1cn(-c2cc(NC(=O)c3ccc(C)c(Nc4nccc(-c5cccnc5)n4)c3)cc(C(F)(F)F)c2)cn1 [nilotinib] + O=C(O)c1ccc(-c2c[nH]c3ncc(-c4ccccc4)cc23)cc1C1CCCC1 [GSK650394] (first compound 0.2 µM, partner dose 0.16 µM) | 38.7% |
| O=C(/C=C/c1cccnc1)NCCCCC1CCN(C(=O)c2ccccc2)CC1 + CC(C)(C)c1cnc(CSc2cnc(NC(=O)C3CCNCC3)s2)o1 [SNS-032] (first compound 0.01 µM, partner dose 0.01 µM) | 23.8% |
| Cc1cn(-c2cc(NC(=O)c3ccc(C)c(Nc4nccc(-c5cccnc5)n4)c3)cc(C(F)(F)F)c2)cn1 [nilotinib] + O=C(CCCCCCC(=O)Nc1ccccc1)NO [vorinostat] (first compound 0.2 µM, partner dose 0.08 µM) | 98.5% |
| N#CC[C@H](C1CCCC1)n1cc(-c2ncnc3[nH]ccc23)cn1 [ruxolitinib] + O=C(O)c1ccc(-c2c[nH]c3ncc(-c4ccccc4)cc23)cc1C1CCCC1 [GSK650394] (first compound 1 µM, partner dose 0.16 µM) | 103% |
| O=C(Nc1cc(C(F)(F)F)cc(C(F)(F)F)c1)c1cc(Cl)ccc1O + CO[C@@H]1[C@H](N(C)C(=O)c2ccccc2)C[C@H]2O[C@]1(C)n1c3ccccc3c3c4c(c5c6ccccc6n2c5c31)C(=O)NC4 [Midostaurin] (first compound 0.016 µM, partner dose 0.08 µM) | 119% |
| N#CC[C@H](C1CCCC1)n1cc(-c2ncnc3[nH]ccc23)cn1 [ruxolitinib] + Cc1ccc(NC(=O)c2cccc(N(C)C)c2)cc1NC(=O)c1ccc(O)cc1 [ZM336372] (first compound 1 µM, partner dose 2 µM) | 126% |
| N#CC[C@H](C1CCCC1)n1cc(-c2ncnc3[nH]ccc23)cn1 [ruxolitinib] + CC1(C)NC(=O)N(c2ccc([N+](=O)[O-])c(C(F)(F)F)c2)C1=O [nilutamide] (first compound 1 µM, partner dose 1 µM) | 70.9% |
| CC[C@]1(O)C[C@H]2CN(CCc3c([nH]c4ccccc34)[C@@](C(=O)OC)(c3cc4c(cc3OC)N(C=O)[C@H]3[C@@](O)(C(=O)OC)[C@H](OC(C)=O)[C@]5(CC)C=CCN6CC[C@]43[C@@H]65)C2)C1 [vincristine] + O=C(Nc1cccc(Cl)c1)Nc1ncc(CCNc2ncnc3ccsc23)s1 [SNS314] (first compound 0.0001 µM, partner dose 0.0008 µM) | 380% |
| Cc1cn(-c2cc(NC(=O)c3ccc(C)c(Nc4nccc(-c5cccnc5)n4)c3)cc(C(F)(F)F)c2)cn1 [nilotinib] + CC(C)(C)c1cnc(CSc2cnc(NC(=O)C3CCNCC3)s2)o1 [SNS-032] (first compound 0.2 µM, partner dose 0.01 µM) | 237% |
| COc1cc([C@@H]2c3cc4c(cc3[C@@H](O[C@@H]3O[C@@H]5CO[C@@H](C)O[C@H]5[C@H](O)[C@H]3O)[C@H]3COC(=O)[C@H]23)OCO4)cc(OC)c1O [etoposide] + NC(=O)Nc1cc(-c2cccc(F)c2)sc1C(=O)N[C@H]1CCCNC1 [AZD7762] (first compound 0.02 µM, partner dose 0.02 µM) | 80.2% |
| Cc1cc(Nc2cc(N3CCN(C)CC3)nc(Sc3ccc(NC(=O)C4CC4)cc3)n2)n[nH]1 [Tozasertib] + Cn1cncc1[C@@](N)(c1ccc(Cl)cc1)c1ccc2c(c1)c(-c1cccc(Cl)c1)cc(=O)n2C [tipifarnib] (first compound 0.006 µM, partner dose 0.01 µM) | 66.4% |
| Cc1ccc(Nc2nccc(N(C)c3ccc4c(C)n(C)nc4c3)n2)cc1S(N)(=O)=O [Pazopanib] + Cn1cncc1[C@@](N)(c1ccc(Cl)cc1)c1ccc2c(c1)c(-c1cccc(Cl)c1)cc(=O)n2C [tipifarnib] (first compound 0.4 µM, partner dose 0.01 µM) | 130% |

Two entries picked at random from the list so far, as already listed:

| SMILES | cleaved PARP positive nuclei fraction |
| --- | --- |
| O=C(/C=C/c1cccnc1)NCCCCC1CCN(C(=O)c2ccccc2)CC1 + CC(C)(C)c1cnc(CSc2cnc(NC(=O)C3CCNCC3)s2)o1 [SNS-032] (first compound 0.01 µM, partner dose 0.01 µM) | 23.8% |
| Cc1cn(-c2cc(NC(=O)c3ccc(C)c(Nc4nccc(-c5cccnc5)n4)c3)cc(C(F)(F)F)c2)cn1 [nilotinib] + NC(=O)Nc1cc(-c2cccc(F)c2)sc1C(=O)N[C@H]1CCCNC1 [AZD7762] (first compound 0.2 µM, partner dose 0.02 µM) | 112% |
